{"source": "paper PMC12120022", "about": "“Discovery and chemical optimisation of a potent, Bi-cyclic antimicrobial inhibitor of Escherichia coli PBP3” (Communications Biology, 2025)", "key": {"[1]": {"system": "Pseudomonas aeruginosa NCTC 13437", "assay": "MIC", "assay_type": "cell-based", "conditions": "NCTC13437, caMHB, replicates listed", "procedure": "(§1) Minimal inhibition concentration (MIC) assays were performed in accordance with CLSI standards, using cation-adjusted Mueller Hinton broth (caMHB; Sigma Aldrich) unless otherwise specified. Induction of pore expression in hyperporinated strains E. coli GKCW101 and GKCW102 was performed by addition of 0.1% (w/v) L-arabinose to cultures at OD600 ~ 0.3, with caMHB as the culture medium."}, "[2]": {"system": "Klebsiella pneumoniae KPNIH1", "assay": "MIC", "assay_type": "cell-based", "conditions": "caMHB, replicates listed", "procedure": "as §1"}}}
{"compound": "C[C@@H](O)[C@H]1C(=O)N2C(C(=O)O)=C(S[C@@H]3CN[C@H](C(=O)N(C)C)C3)[C@H](C)[C@H]12", "note": "[Meropenem, reference compound]", "values": [{"measurement": "MIC", "setting": "[1]", "value": "> 2", "unit": "µg/mL"}, {"measurement": "MIC", "setting": "[2]", "value": "> 2", "unit": "µg/mL"}]}
